PubChem BioAssay AID1159584 – Peter MacCallum Cancer Centre – 2016
The deposit covers about 18,000 reagents; below is an unselected part. Further read-outs or replicates are left out here. The record does not give: the amount of reagent, the time to read-out.

- Assay: 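Knock-downs that harm CDH1-null cells more than parental MCF10A cells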 (primary screen)
- System: human MCF10A breast epithelial cells, parental and CDH1-null
- Knock-down reagent: siRNA against human genes
- Measurement: 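ATP luminescence (CellTiter-Glo) viability per line relative to mean mock wells over all plates, and the ratio of CDH1-null to parental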
- Scale: CDH1-null / parental viability ratio: higher = CDH1-null cells survive relatively better than parental

| gene | CDH1-null / parental viability ratio |
| --- | --- |
| CCR5 (C-C motif chemokine receptor 5) | 0.91 |
| NKIRAS2 (NFKB inhibitor interacting Ras like 2) | 1.12 |
| CATSPER2 (cation channel sperm associated 2) | 1.21 |
| HTR2B (5-hydroxytryptamine receptor 2B) | 0.78 |
| ANO3 (anoctamin 3) | 1.58 |
| LAPTM4A (lysosomal protein transmembrane 4 alpha) | 1.14 |
| TLR3 (toll like receptor 3) | 0.99 |
| MTX3 (metaxin 3) | 0.98 |
| FANCD2 (FA complementation group D2) | 1.12 |
| SRSF8 (serine and arginine rich splicing factor 8) | 1.17 |
| UCK1 (uridine-cytidine kinase 1) | 0.88 |
| CYYR1 (cysteine and tyrosine rich 1) | 0.9 |
| DDX28 (DEAD-box helicase 28) | 1.15 |
| ORM2 (orosomucoid 2) | 1.11 |
| ADAMTSL1 (ADAMTS like 1) | 1.03 |
| CDC25C (cell division cycle 25C) | 1.63 |
| IDH3A (isocitrate dehydrogenase (NAD(+)) 3 catalytic subunit alpha) | 0.92 |
| IFITM2 (interferon induced transmembrane protein 2) | 0.6 |
| PYGO2 (pygopus family PHD finger 2) | 1.44 |
| CAMLG (calcium modulating ligand) | 1.24 |
| RSPH14 (radial spoke head 14 homolog) | 0.93 |
| UBC (ubiquitin C) | 0.91 |
| CERS6 (ceramide synthase 6) | 1.15 |
| LRRIQ4 (leucine rich repeats and IQ motif containing 4) | 0.83 |
| NME1 (NME/NM23 nucleoside diphosphate kinase 1) | 1.05 |
| DPM3 (dolichyl-phosphate mannosyltransferase subunit 3, regulatory) | 1 |
| TRMT13 (tRNA methyltransferase 13) | 1 |
| NCK1 (NCK adaptor protein 1) | 0.71 |
| SLC5A5 | 0.84 |
| CISD2 (CDGSH iron sulfur domain 2) | 0.93 |
| ZPBP (zona pellucida binding protein) | 0.77 |
| FH (fumarate hydratase) | 1.07 |
| OR5AS1 (olfactory receptor family 5 subfamily AS member 1) | 1.04 |
| ANKRD29 (ankyrin repeat domain 29) | 1.1 |
| NCBP2 (nuclear cap binding protein subunit 2) | 1.24 |
| KCNA5 (potassium voltage-gated channel subfamily A member 5) | 1.19 |
| CCDC57 (coiled-coil domain containing 57) | 1.1 |
| ZC3H7A (zinc finger CCCH-type containing 7A) | 1.33 |
| TSR1 (TSR1 ribosome maturation factor) | 1.15 |
| NUTM2G (NUT family member 2G) | 0.79 |
| FXYD2 (FXYD domain containing ion transport regulator 2) | 1.61 |
| ADGRF5 (adhesion G protein-coupled receptor F5) | 1.59 |
| NCAM2 (neural cell adhesion molecule 2) | 0.89 |
| TFCP2L1 (transcription factor CP2 like 1) | 0.76 |

Records above whose gene name starts with S or s (2):
| gene | CDH1-null / parental viability ratio |
| --- | --- |
| SRSF8 (serine and arginine rich splicing factor 8) | 1.17 |
| SLC5A5 | 0.84 |

The results go on:
| gene | CDH1-null / parental viability ratio |
| --- | --- |
| GRIK5 (glutamate ionotropic receptor kainate type subunit 5) | 1.14 |
| PLXDC2 (plexin domain containing 2) | 1.05 |
| CYB5A (cytochrome b5 type A) | 1.05 |
| RBM6 (RNA binding motif protein 6) | 1.11 |
| HMGB1P1 (high mobility group box 1 pseudogene 1) | 0.84 |
| ALKBH8 (alkB homolog 8, tRNA methyltransferase) | 1.03 |
| NKX2-2 (NK2 homeobox 2) | 1.1 |
| ATP13A1 (ATPase 13A1) | 0.91 |
| TRIM37 (tripartite motif containing 37) | 0.98 |
| C1QL3 (complement C1q like 3) | 0.95 |
| REEP2 (receptor accessory protein 2) | 0.93 |
| CDC20B (cell division cycle 20B) | 1.02 |
| KLF12 (KLF transcription factor 12) | 0.82 |
| TBC1D2B (TBC1 domain family member 2B) | 0.96 |
| UQCRB (ubiquinol-cytochrome c reductase binding protein) | 0.99 |
| ERRFI1 (ERBB receptor feedback inhibitor 1) | 1.43 |
| JKAMP (JNK1/MAPK8 associated membrane protein) | 0.69 |
| USH1G (USH1 protein network component sans) | 0.86 |
| SLC36A2 | 1 |
| DHRSX (dehydrogenase/reductase X-linked) | 0.88 |
| TSGA13 (testis specific 13) | 0.89 |
| ISG20 (interferon stimulated exonuclease gene 20) | 0.99 |
| EIF2A (eukaryotic translation initiation factor 2A) | 0.89 |
| OR52R1 (olfactory receptor family 52 subfamily R member 1) | 0.88 |
